Laboratory results as given in PubChem BioAssay AID1439 (NMMLSC, 2008).
The campaign covered roughly 220,000 compounds. About 770 (0.35%) were called active. Inconclusive results, whose numbers are uncertain, are shown with a selection of clear calls. Cut-off read from the data, not from the text of the source: active = binding response below about 49% or above about 150%; inconclusive = no clear call, values can overlap the other calls; inactive = in between.

Chains of the proteins cited; added tags and fusions are not shown.
UniProt P09471, whole entry, looked up: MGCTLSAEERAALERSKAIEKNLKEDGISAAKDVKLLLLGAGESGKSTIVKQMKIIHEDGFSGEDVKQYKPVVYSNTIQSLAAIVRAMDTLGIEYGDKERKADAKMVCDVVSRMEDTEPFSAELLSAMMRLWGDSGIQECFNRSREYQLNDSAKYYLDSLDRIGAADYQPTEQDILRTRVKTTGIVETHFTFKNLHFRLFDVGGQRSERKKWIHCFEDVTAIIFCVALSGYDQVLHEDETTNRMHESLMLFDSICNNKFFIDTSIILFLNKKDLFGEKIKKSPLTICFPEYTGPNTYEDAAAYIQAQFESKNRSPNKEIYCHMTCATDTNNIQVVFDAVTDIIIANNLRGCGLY

The compounds below were run against Guanine nucleotide-binding protein G(o) subunit alpha (Homo sapiens) (UniProt P09471) (assay: RGS7-Galphao binding modulators, primary screen, biochemical, multiplexed bead flow cytometry (AID 1439;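 note: fluorescent Galphao held in activated GDP-AlF4 state binding bead-coupled RGS7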)). Conditions: at 10 µM, actives lie on both sides.
`CC(C)c1ccc(N2C(=O)CC(NNC(=O)c3ccccc3Cl)C2=O)cc1` (configuration not stated) was tested, and the binding response (% of control) was inconclusive: 97.7%. With `CC(C)n1cnc2cc(NCc3ccccc3O)ccc21` the binding response (% of control) was inconclusive: 124%. In the case of `Cn1ccnc1SCC(=O)n1c2c(c3ccccc31)CCCC2`, the binding response (% of control) is reported as inactive: 59.9%. With `COc1ccc2[nH]c(C(=O)NCc3ccccc3)cc2c1` the binding response (% of control) was inconclusive: 78.7%. With `CC1CCCCN1C(=S)NCCc1ccccc1` (configuration not stated) the binding response (% of control) was inactive: 100%. With `COc1ccc(-c2cc(C(=O)Nc3ccc(O)cc3)c3ccccc3n2)cc1OC` the binding response (% of control) was inconclusive: 87.5%. With `CC(=O)NCCc1nc2ccccc2n1CCOc1cccc(C)c1` the binding response (% of control) was inconclusive: 70.8%. For `Fc1ccc(NC(=S)Nc2cc(-c3ccccc3)[nH]n2)cc1Cl`, the binding response (% of control) was inconclusive: 89%. For `O=C(CCCOc1ccccc1)NC(=S)Nc1ccccc1`, the binding response (% of control) was inactive: 95.4%. In the case of `O=C(N/N=C/c1c(Cl)nc2ccccn2c1=O)c1cccnc1`, the binding response (% of control) is reported as inconclusive: 118%. For `O=C(O)c1ccccc1C1Nc2ccccc2C(=O)N1CCCN1CCOCC1` (configuration not stated), the binding response (% of control) was inconclusive: 173%. `COc1c(Br)cc(Br)cc1C(=O)O` was tested, and the binding response (% of control) was inactive: 99.1%. With `Cc1ccc(S(=O)(=O)N2CCOCC2)cc1C(=O)Nc1cccc(S(=O)(=O)N2CCCC2)c1` the binding response (% of control) was inconclusive: 105%. In the case of `COc1ccc(C)cc1NC(=O)c1nn(C)cc1Br`, the binding response (% of control) is reported as inconclusive: 137%. `CN1C(C(=O)NCc2cccc(C(F)(F)F)c2)CC2Cn3c(nc4ccccc43)C21` (configuration not stated) was tested, and the binding response (% of control) was inconclusive: 91.5%. With `O=C(c1cc(COc2c(F)cccc2F)on1)N1CCSCC1` the binding response (% of control) was inconclusive: 146%. `COC(=O)[C@H](Cc1ccccc1)NC(=O)NCc1ccccc1` was tested, and the binding response (% of control) was inconclusive: 75.2%. In the case of `N#Cc1ccccc1OCCCNC1CCCC1`, the binding response (% of control) is reported as inconclusive: 101%. With `CN(C)c1ccc(/C=N/NS(=O)(=O)c2ccc(Br)cc2)cc1` the binding response (% of control) was inconclusive: 13.9%. `COc1cc(OC)c(OC)cc1/C=C1/C(=O)N=C(N)N1C` was tested, and the binding response (% of control) was inconclusive: 142%. With `CNC(=S)NNC(=O)Cc1ccc(OC)cc1` the binding response (% of control) was inconclusive: 366%. For `COc1ccc(Cl)cc1C(=O)NC(C)C`, the binding response (% of control) was inactive: 105%. With `CC(=O)c1cc(O)c2ccccc2c1O` the binding response (% of control) was inconclusive: 101%. `COc1cc(OC)cc(C(=O)NCCC(=O)NCCc2ccc(OC)c(OC)c2)c1` was tested, and the binding response (% of control) was inactive: 94.7%. In the case of `CC(CCc1ccccc1)N(C)CC(O)c1cccc([N+](=O)[O-])c1` (configuration not stated), the binding response (% of control) is reported as inconclusive: 110%. In the case of `O=C(Nc1nccs1)c1cc2cc(Cl)ccc2oc1=O`, the binding response (% of control) is reported as inconclusive: 53.5%. For `CC1CC(C)CN(C(=O)c2cc3cc(Br)cc(Br)c3o2)C1` (configuration not stated), the binding response (% of control) was inactive: 101%. For `O=C(CCc1nc2ccccc2c(=O)[nH]1)Nc1ccc(Cl)c(Cl)c1`, the binding response (% of control) was inactive: 85.7%. `COc1cc(CCc2ccc3c(c2)OCO3)oc(=O)c1` was tested, and the binding response (% of control) was inconclusive: 104%. In the case of `C[C@@H]1CCC[C@]2(O[C@H](CCO)C[C@H](O)[C@H]2O)O1`, the binding response (% of control) is reported as inconclusive: 100%. With `COc1ccc(CCNc2ccc(C(CC(N)=O)NC(=O)Cc3cccc4ccccc34)cc2[N+](=O)[O-])cc1` (configuration not stated) the binding response (% of control) was inconclusive: 60.3%. For `CC(C)C(=O)Nc1cccnc1`, the binding response (% of control) was inconclusive: 100%. In the case of `COc1cc(/C=C/c2ccc3cccc(OC)c3n2)c(O)c([N+](=O)[O-])c1`, the binding response (% of control) is reported as inconclusive: 100%. In the case of `Cc1c(Br)c([N+](=O)[O-])nn1CC(=O)NCCc1c[nH]c2ccccc12`, the binding response (% of control) is reported as inactive: 99.7%. With `Cc1cccc(C(=O)Oc2ccccc2C(=O)N2CCOCC2)c1` the binding response (% of control) was inconclusive: 89.5%. For `CN1CCc2c(sc(/N=C/c3c[nH]c4ccccc34)c2C(N)=O)C1`, the binding response (% of control) was inconclusive: 109%. In the case of `C=CCNC(=S)NC(CC(=O)OC)c1ccc2c(c1)OCO2` (configuration not stated), the binding response (% of control) is reported as inconclusive: 87.1%. `CC(=O)n1cc(N(C(=O)CCl)c2ccc(Cl)cc2)c2ccccc21` was tested, and the binding response (% of control) was inconclusive: 98.4%. With `COc1ccccc1N1CCN(/N=C/C(Cl)=C/c2ccccc2)CC1` the binding response (% of control) was inconclusive: 98.3%. With `CCC(C)N1C(=S)SC(C)(C)C1N(O)C(=O)NC1CCCCC1` (configuration not stated) the binding response (% of control) was inconclusive: 61.2%. With `O=C(OCC(=O)N1CCOCC1)c1cccc(S(=O)(=O)N2CCCc3ccccc32)c1` the binding response (% of control) was inconclusive: 88.8%. `COc1ccc(-c2ccc(OC(=O)NC3CCS(=O)(=O)C3)cc2)cc1` (configuration not stated) was tested, and the binding response (% of control) was inconclusive: 323%. In the case of `CCCn1nnc(NC(=O)/C=C/c2ccc(C(C)C)cc2)n1`, the binding response (% of control) is reported as inconclusive: -52.9%. In the case of `NNC(=S)NC1CCCCCCCCCCC1`, the binding response (% of control) is reported as inconclusive: 108%. `COCCSc1nnc(NC(=O)C2CC(=O)N(c3ccc(C)cc3)C2)s1` (configuration not stated) was tested, and the binding response (% of control) was inconclusive: 108%. For `CN(C)C(=O)CSc1nnc(-c2ccc(F)cc2)c2ccccc12`, the binding response (% of control) was inconclusive: 294%. For `CCN(C(=O)CSc1nnc(-c2c[nH]c3ccccc23)o1)C1CCS(=O)(=O)C1` (configuration not stated), the binding response (% of control) was inactive: 104%.
